# Source: the supplement of paper PMC8728848
# The other results are listed elsewhere or left out.
# B1: Gal 10 (Homo sapiens), Q05315 (protein)
# chain: MSLLPVPYTEAASLSTGSTVTIKGRPLVCFLNEPYLQVDFHTEMKEESDIVFHFQVCFGRRVVMNSREYGAWKQQVESKNMPFQDGQEFELSISVLPDKYQVMVNGQSSYTFDHRIKPEAVKMVQVWRDISLTKFNVSYLKR
# Key:
# Assay in all cases: glycan array binding signal (z-score within array); higher = stronger binding
# Settings in all cases: glycan notation: IUPAC condensed, linker removed
# [1] = molecular target: Gal(b1-4)GlcNAc(b1-3)Gal(b1-4)GlcNAc(b1-3)Gal(b1-4)GlcNAc(b1-2)Man(a1-3)[Gal(b1-4)GlcNAc(b1-3)Gal(b1-4)GlcNAc(b1-3)Gal(b1-4)GlcNAc(b1-2)Man(a1-6)]Man(b1-4)GlcNAc(b1-4)GlcNAc
# Method in brief: (§1)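 Glycan array data came from 3228 arrays in the Consortium for Functional Glycomics database, and only arrays with an available protein sequence were kept. Glycan names were put into IUPAC-condensed notation, and columns mapping to the same glycan were averaged. The binding signal is a within-array Z-score, averaged across arrays of one protein sequence run at different concentrations or buffers and across linkers. A negative Z-score can be read as non-binding.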
# [2] = molecular target: Gal(b1-4)GlcNAc(b1-3)Gal(b1-4)GlcNAc(b1-3)Gal(b1-4)GlcNAc(b1-2)Man(a1-3)[Gal(b1-4)GlcNAc(b1-3)Gal(b1-4)GlcNAc(b1-3)Gal(b1-4)GlcNAc(b1-2)Man(a1-6)]Man(b1-4)GlcNAc(b1-4)[Fuc(a1-6)]GlcNAc
# Method in brief: as §1
# [3] = molecular target: Gal(b1-4)GlcNAc(b1-3)Gal(b1-4)GlcNAc(b1-3)Gal(b1-4)GlcNAc(b1-2)[Gal(b1-4)GlcNAc(b1-3)Gal(b1-4)GlcNAc(b1-3)Gal(b1-4)GlcNAc(b1-6)]Man(a1-6)[Gal(b1-4)GlcNAc(b1-3)Gal(b1-4)GlcNAc(b1-3)Gal(b1-4)GlcNAc(b1-2)Man(a1-3)]Man(b1-4)GlcNAc(b1-4)[Fuc(a1-6)]GlcNAc
# Method in brief: as §1
# [4] = molecular target: Gal(b1-4)GlcNAc(b1-3)Gal(b1-4)GlcNAc(b1-3)Gal(b1-4)GlcNAc(b1-3)Gal(b1-4)GlcNAc(b1-2)Man(a1-3)[Gal(b1-4)GlcNAc(b1-3)Gal(b1-4)GlcNAc(b1-3)Gal(b1-4)GlcNAc(b1-3)Gal(b1-4)GlcNAc(b1-2)Man(a1-6)]Man(b1-4)GlcNAc(b1-4)GlcNAc
# Method in brief: as §1
# [5] = molecular target: Gal(b1-4)GlcNAc(b1-3)Gal(b1-4)GlcNAc(b1-3)Gal(b1-4)GlcNAc(b1-3)Gal(b1-4)GlcNAc(b1-2)Man(a1-3)[Gal(b1-4)GlcNAc(b1-3)Gal(b1-4)GlcNAc(b1-3)Gal(b1-4)GlcNAc(b1-3)Gal(b1-4)GlcNAc(b1-2)Man(a1-6)]Man(b1-4)GlcNAc(b1-4)[Fuc(a1-6)]GlcNAc
# Method in brief: as §1
# [6] = molecular target: Gal(b1-4)GlcNAc(b1-3)Gal(b1-4)GlcNAc(b1-3)Gal(b1-4)GlcNAc(b1-3)Gal(b1-4)GlcNAc(b1-2)[Gal(b1-4)GlcNAc(b1-3)Gal(b1-4)GlcNAc(b1-3)Gal(b1-4)GlcNAc(b1-3)Gal(b1-4)GlcNAc(b1-6)]Man(a1-6)[Gal(b1-4)GlcNAc(b1-3)Gal(b1-4)GlcNAc(b1-3)Gal(b1-4)GlcNAc(b1-3)Gal(b1-4)GlcNAc(b1-2)Man(a1-3)]Man(b1-4)GlcNAc(b1-4)[Fuc(a1-6)]GlcNAc
# Method in brief: as §1
# [7] = molecular target: Gal(b1-4)GlcNAc(b1-3)Gal(b1-4)GlcNAc(b1-3)Gal(b1-4)GlcNAc(b1-3)Gal(b1-4)GlcNAc(b1-3)Gal(b1-4)GlcNAc(b1-2)Man(a1-3)[Gal(b1-4)GlcNAc(b1-3)Gal(b1-4)GlcNAc(b1-3)Gal(b1-4)GlcNAc(b1-3)Gal(b1-4)GlcNAc(b1-3)Gal(b1-4)GlcNAc(b1-2)Man(a1-6)]Man(b1-4)GlcNAc(b1-4)GlcNAc
# Method in brief: as §1
# [8] = molecular target: Gal(b1-4)GlcNAc(b1-3)Gal(b1-4)GlcNAc(b1-3)Gal(b1-4)GlcNAc(b1-3)Gal(b1-4)GlcNAc(b1-3)Gal(b1-4)GlcNAc(b1-2)Man(a1-3)[Gal(b1-4)GlcNAc(b1-3)Gal(b1-4)GlcNAc(b1-3)Gal(b1-4)GlcNAc(b1-3)Gal(b1-4)GlcNAc(b1-3)Gal(b1-4)GlcNAc(b1-2)Man(a1-6)]Man(b1-4)GlcNAc(b1-4)[Fuc(a1-6)]GlcNAc
# Method in brief: as §1
# [9] = molecular target: Gal(b1-4)GlcNAc(b1-3)Gal(b1-4)GlcNAc(b1-3)Gal(b1-4)GlcNAc(b1-3)Gal(b1-4)GlcNAc(b1-3)Gal(b1-4)GlcNAc(b1-2)[Gal(b1-4)GlcNAc(b1-3)Gal(b1-4)GlcNAc(b1-3)Gal(b1-4)GlcNAc(b1-3)Gal(b1-4)GlcNAc(b1-3)Gal(b1-4)GlcNAc(b1-6)]Man(a1-6)[Gal(b1-4)GlcNAc(b1-3)Gal(b1-4)GlcNAc(b1-3)Gal(b1-4)GlcNAc(b1-3)Gal(b1-4)GlcNAc(b1-3)Gal(b1-4)GlcNAc(b1-2)Man(a1-3)]Man(b1-4)GlcNAc(b1-4)[Fuc(a1-6)]GlcNAc
# Method in brief: as §1
# [10] = molecular target: Gal(b1-4)GlcNAc(b1-3)Gal(b1-4)GlcNAc(b1-3)Gal(b1-4)GlcNAc(b1-3)Gal(b1-4)GlcNAc(b1-3)Gal(b1-4)GlcNAc(b1-3)Gal(b1-4)GlcNAc(b1-2)Man(a1-3)[Gal(b1-4)GlcNAc(b1-3)Gal(b1-4)GlcNAc(b1-3)Gal(b1-4)GlcNAc(b1-3)Gal(b1-4)GlcNAc(b1-3)Gal(b1-4)GlcNAc(b1-3)Gal(b1-4)GlcNAc(b1-2)Man(a1-6)]Man(b1-4)GlcNAc(b1-4)GlcNAc
# Method in brief: as §1
# [11] = molecular target: Gal(b1-4)GlcNAc(b1-3)Gal(b1-4)GlcNAc(b1-3)GalNAc
# Method in brief: as §1
# [12] = molecular target: Gal(b1-4)GlcNAc(b1-3)Gal(b1-4)GlcNAc(b1-3)[Gal(b1-4)GlcNAc(b1-3)Gal(b1-4)GlcNAc(b1-6)]GalNAc
# Method in brief: as §1
# [13] = molecular target: Gal(b1-4)GlcNAc(b1-3)Gal(b1-4)GlcNAc(b1-6)[Gal(b1-3)]GalNAc
# Method in brief: as §1
# [14] = molecular target: Gal(b1-4)GlcNAc(b1-3)Gal(b1-4)[Fuc(a1-3)GlcNAc(b1-6)]Gal(b1-4)Glc
# Method in brief: as §1
# [15] = molecular target: Gal(b1-4)GlcNAc(b1-3)Gal(b1-4)[Fuc(a1-3)]GlcNAc(b1-3)Gal(b1-4)[Fuc(a1-3)]GlcNAc
# Method in brief: as §1
# [16] = molecular target: Gal(b1-4)GlcNAc(b1-3)GalNAc
# Method in brief: as §1
# [17] = molecular target: Gal(b1-4)GlcNAc(b1-3)[Fuc(a1-3)GlcNAc(b1-6)]Gal(b1-4)Glc
# Method in brief: as §1
# [18] = molecular target: Gal(b1-4)GlcNAc(b1-3)[Gal(b1-4)GlcNAc(b1-6)]Gal(b1-4)GlcNAc
# Method in brief: as §1
# [19] = molecular target: Gal(b1-4)GlcNAc(b1-3)[Gal(b1-4)GlcNAc(b1-6)]GalNAc
# Method in brief: as §1
# [20] = molecular target: Gal(b1-4)GlcNAc(b1-3)[GlcNAc(b1-6)]Gal(b1-4)GlcNAc
# Method in brief: as §1
# [21] = molecular target: Gal(b1-4)GlcNAc(b1-6)Gal(b1-4)GlcNAc
# Method in brief: as §1
# [22] = molecular target: Gal(b1-4)GlcNAc(b1-6)GalNAc
# Method in brief: as §1
# [23] = molecular target: Gal(b1-4)GlcNAc(b1-6)[Gal(b1-3)]GalNAc
# Method in brief: as §1
# [24] = molecular target: Gal(b1-4)GlcNAc(b1-6)[Gal(b1-4)GlcNAc(b1-3)]GalNAc
# Method in brief: as §1
# Gal(b1-4)GlcNAc6P = molecular target: Gal(b1-4)GlcNAc6P
# Method in brief: as §1
# Gal(b1-6)Gal = molecular target: Gal(b1-6)Gal
# Method in brief: as §1
# Gal3S(b1-3)GalNAc = molecular target: Gal3S(b1-3)GalNAc
# Method in brief: as §1
# Gal3S(b1-3)GlcNAc = molecular target: Gal3S(b1-3)GlcNAc
# Method in brief: as §1
# [25] = molecular target: Gal3S(b1-3)[Fuc(a1-4)]GlcNAc
# Method in brief: as §1
# Gal3S(b1-4)Glc = molecular target: Gal3S(b1-4)Glc
# Method in brief: as §1
# Gal3S(b1-4)Glc6S = molecular target: Gal3S(b1-4)Glc6S
# Method in brief: as §1
# Gal3S(b1-4)GlcNAc = molecular target: Gal3S(b1-4)GlcNAc
# Method in brief: as §1
# Gal3S(b1-4)GlcNAc6S = molecular target: Gal3S(b1-4)GlcNAc6S
# Method in brief: as §1
# [26] = molecular target: Gal3S(b1-4)[Fuc(a1-3)]Glc
# Method in brief: as §1
# [27] = molecular target: Gal3S(b1-4)[Fuc(a1-3)]Glc6S
# Method in brief: as §1
# [28] = molecular target: Gal3S(b1-4)[Fuc(a1-3)]GlcNAc
# Method in brief: as §1
# [29] = molecular target: Gal3S(b1-4)[Fuc(a1-3)]GlcNAc6S
# Method in brief: as §1
# Gal3S4S(b1-4)GlcNAc = molecular target: Gal3S4S(b1-4)GlcNAc
# Method in brief: as §1
# Gal3S6S(b1-4)GlcNAc = molecular target: Gal3S6S(b1-4)GlcNAc
# Method in brief: as §1
# Gal3S6S(b1-4)GlcNAc6S = molecular target: Gal3S6S(b1-4)GlcNAc6S
# Method in brief: as §1
# Gal4S(b1-4)GlcNAc = molecular target: Gal4S(b1-4)GlcNAc
# Method in brief: as §1
# Gal4S6S(b1-4)GlcNAc = molecular target: Gal4S6S(b1-4)GlcNAc
# Method in brief: as §1
# Gal6P(b1-4)GlcNAc = molecular target: Gal6P(b1-4)GlcNAc
# Method in brief: as §1
# Gal6S(b1-3)GlcNAc = molecular target: Gal6S(b1-3)GlcNAc
# Method in brief: as §1
# Gal6S(b1-3)GlcNAc6S = molecular target: Gal6S(b1-3)GlcNAc6S
# Method in brief: as §1
binder,measurement,setting,value
B1,glycan array binding signal (z-score),[1],0.745
same,glycan array binding signal (z-score),[2],0.386
same,glycan array binding signal (z-score),[3],5.64
same,glycan array binding signal (z-score),[4],1.01
same,glycan array binding signal (z-score),[5],-0.222
same,glycan array binding signal (z-score),[6],-0.122
same,glycan array binding signal (z-score),[7],3.23
same,glycan array binding signal (z-score),[8],0.227
same,glycan array binding signal (z-score),[9],-0.151
same,glycan array binding signal (z-score),[10],-0.119
same,glycan array binding signal (z-score),[11],-0.288
same,glycan array binding signal (z-score),[12],-0.147
same,glycan array binding signal (z-score),[13],3.3
same,glycan array binding signal (z-score),[14],0.658
same,glycan array binding signal (z-score),[15],0.655
same,glycan array binding signal (z-score),[16],-0.548
same,glycan array binding signal (z-score),[17],-0.497
same,glycan array binding signal (z-score),[18],-0.643
same,glycan array binding signal (z-score),[19],-0.376
same,glycan array binding signal (z-score),[20],0.216
same,glycan array binding signal (z-score),[21],-0.659
same,glycan array binding signal (z-score),[22],-0.462
same,glycan array binding signal (z-score),[23],-0.518
same,glycan array binding signal (z-score),[24],0.246
same,glycan array binding signal (z-score),Gal(b1-4)GlcNAc6P,-0.463
same,glycan array binding signal (z-score),Gal(b1-6)Gal,1.22
same,glycan array binding signal (z-score),Gal3S(b1-3)GalNAc,-0.157
same,glycan array binding signal (z-score),Gal3S(b1-3)GlcNAc,-0.542
same,glycan array binding signal (z-score),[25],-0.033
same,glycan array binding signal (z-score),Gal3S(b1-4)Glc,-0.577
same,glycan array binding signal (z-score),Gal3S(b1-4)Glc6S,0.08
same,glycan array binding signal (z-score),Gal3S(b1-4)GlcNAc,-0.335
same,glycan array binding signal (z-score),Gal3S(b1-4)GlcNAc6S,-0.008
same,glycan array binding signal (z-score),[26],-0.407
same,glycan array binding signal (z-score),[27],0.301
same,glycan array binding signal (z-score),[28],-0.495
same,glycan array binding signal (z-score),[29],-0.211
same,glycan array binding signal (z-score),Gal3S4S(b1-4)GlcNAc,-1.33
same,glycan array binding signal (z-score),Gal3S6S(b1-4)GlcNAc,0.652
same,glycan array binding signal (z-score),Gal3S6S(b1-4)GlcNAc6S,-0.166
same,glycan array binding signal (z-score),Gal4S(b1-4)GlcNAc,-0.269
same,glycan array binding signal (z-score),Gal4S6S(b1-4)GlcNAc,0.061
same,glycan array binding signal (z-score),Gal6P(b1-4)GlcNAc,-0.104
same,glycan array binding signal (z-score),Gal6S(b1-3)GlcNAc,-0.062
same,glycan array binding signal (z-score),Gal6S(b1-3)GlcNAc6S,-0.718

# 2 consecutive records out of the list so far, quoted:
binder,measurement,setting,value
B1,glycan array binding signal (z-score),[25],-0.033
same,glycan array binding signal (z-score),Gal3S(b1-4)Glc,-0.577
